Data from patent US9346805B2, “Pyrimidyl cyclopentanes as Akt protein kinase inhibitors” (Array BioPharma Inc., priority 2008, dated 2016).
Some entries share one result that the patent states for a list of compounds.

By UniProt entry, the sequences of proteins in these tests, tags left out. Where a name states a change or a piece, a line headed by the entry shows the natural chain unless it says otherwise.
UniProt P31749: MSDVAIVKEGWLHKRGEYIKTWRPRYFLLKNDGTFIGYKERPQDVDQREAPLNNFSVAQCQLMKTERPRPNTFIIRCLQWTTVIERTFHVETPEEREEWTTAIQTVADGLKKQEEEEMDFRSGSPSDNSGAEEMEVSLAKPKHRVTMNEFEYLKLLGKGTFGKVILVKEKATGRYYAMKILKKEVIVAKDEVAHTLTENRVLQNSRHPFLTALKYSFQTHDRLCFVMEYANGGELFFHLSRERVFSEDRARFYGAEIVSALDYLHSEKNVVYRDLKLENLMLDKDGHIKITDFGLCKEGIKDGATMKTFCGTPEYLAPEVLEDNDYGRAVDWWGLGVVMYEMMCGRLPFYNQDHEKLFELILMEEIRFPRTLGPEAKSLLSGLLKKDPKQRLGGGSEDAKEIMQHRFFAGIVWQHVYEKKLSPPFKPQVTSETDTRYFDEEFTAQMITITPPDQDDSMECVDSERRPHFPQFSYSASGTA

What follows are compounds tested against full-length human recombinant active Akt-1 (Homo sapiens, UniProt P31749) (assay: AKT-1 Kinase Assay (IMAP fluorescence polarization)). Conditions: phosphorylation of fluorescently-labeled peptide (Crosstide) by Akt-1; printed as 'less than about'.
Type: biochemical

| Structure (SMILES) | IC50 |
| --- | --- |
| C[C@@H]1C[C@@H](O)c2ncnc(N3CC4(CCNC4)c4cc(Cl)ccc43)c21 (mixture of isomers) [Example 21, (5R,7R)-4-(5-chlorospiro[indoline-3,3′-pyrrolidine]-1-yl)-5-methyl-6,7-dihydro-5H-cyclopenta[d]pyrimidin-7-ol] | < 10 µM |
| C[C@@H]1CCc2ncnc(N3CC4(CCNCC4)c4cc(Cl)ccc43)c21 [Example 1, (R)-5-chloro-1-(5-methyl-6,7-dihydro-5H-cyclopenta[d]pyrimidin-4-yl)spiro[indoline-3,4′-piperidine]] | < 10 µM |
| C[C@@H]1CCc2ncnc(N3CC4(CCNCC4)c4cc(Br)ccc43)c21 [Example 2, (R)-5-bromo-1-(5-methyl-6,7-dihydro-5H-cyclopenta[d]pyrimidin-4-yl)spiro[indoline-3,4′-piperidine]] | < 10 µM |
| C[C@@H]1C[C@H](F)c2ncnc(N3CC4(CCNCC4)c4cc(Cl)ccc43)c21 [Example 3, 5-chloro-1-((5R,7S)-7-fluoro-5-methyl-6,7-dihydro-5H-cyclopenta[d]pyrimidin-4-yl)spiro[indoline-3,4′-piperidine]] | < 10 µM |
| C[C@@H]1C[C@@H](F)c2ncnc(N3CC4(CCNCC4)c4cc(Cl)ccc43)c21 [Example 4, 5-chloro-1-((5R,7R)-7-fluoro-5-methyl-6,7-dihydro-5H-cyclopenta[d]pyrimidin-4-yl)spiro[indoline-3,4′-piperidine]] | < 10 µM |
| C[C@@H]1C[C@@H](O)c2ncnc(N3CC4(CCNCC4)c4cc(Cl)ccc43)c21 [Example 5, (5R,7R)-4-(5-chlorospiro[indoline-3,4′-piperidine]-1-yl)-5-methyl-6,7-dihydro-5H-cyclopenta[d]pyrimidin-7-ol] | < 10 µM |
| C[C@@H]1C[C@H](O)c2ncnc(N3CC4(CCNCC4)c4cc(Cl)ccc43)c21 [Example 6, (5R,7S)-4-(5-chlorospiro[indoline-3,4′-piperidine]-1-yl)-5-methyl-6,7-dihydro-5H-cyclopenta[d]pyrimidin-7-ol] | < 10 µM |
| C[C@@H]1CCc2ncnc(N3CC4(CCNCC4)c4cc(C5CC5)ccc43)c21 [Example 7, (R)-5-cyclopropyl-1-(5-methyl-6,7-dihydro-5H-cyclopenta[d]pyrimidin-4-yl)spiro[indoline-3,4′-piperidine]] | < 10 µM |
| C[C@@H]1CCc2ncnc(N3CC4(CCNCC4)c4c3ccc(Cl)c4C#N)c21 [Example 8, (R)-5-chloro-1-(5-methyl-6,7-dihydro-5H-cyclopenta[d]pyrimidin-4-yl)spiro[indoline-3,4′-piperidine]-4-carbonitrile] | < 10 µM |
| C[C@@H]1CCc2ncnc(N3CC4(CCNCC4)c4cc(Nc5cccc(Cl)c5)ccc43)c21 [Example 9, (R)—N-(3-chlorophenyl)-1-(5-methyl-6,7-dihydro-5H-cyclopenta[d]pyrimidin-4-yl)spiro[indoline-3,4′-piperidin]-5-amine] | < 10 µM |
| C[C@@H]1CCc2ncnc(N3CC4(CCNCC4)c4cc(CC(N)=O)ccc43)c21 [Example 10, (R)-2-(1-(5-methyl-6,7-dihydro-5H-cyclopenta[d]pyrimidin-4-yl)spiro[indoline-3,4′-piperidine]-5-yl)acetamide] | < 10 µM |
| C[C@@H]1CCc2ncnc(N3CC4(CCNCC4)c4cc(Cc5cccc(F)c5)ccc43)c21 [Example 11, (R)-5-(3-fluorobenzyl)-1-(5-methyl-6,7-dihydro-5H-cyclopenta[d]pyrimidin-4-yl)spiro[indoline-3,4′-piperidine]] | < 10 µM |
| C[C@@H]1CCc2ncnc(N3CC4(CCNCC4)c4cc(OC(CN)c5ccccc5)ccc43)c21 (stereo partly drawn) [Example 12, 2-(1-((R)-5-methyl-6,7-dihydro-5H-cyclopenta[d]pyrimidin-4-yl)spiro[indoline-3,4′-piperidine]-5-yloxy)-2-phenylethanamine] | < 10 µM |
| C[C@@H]1CCc2ncnc(N3CC4(CCNCC4)c4cc(CN)ccc43)c21 [Example 13, (R)-(1-(5-methyl-6,7-dihydro-5H-cyclopenta[d]pyrimidin-4-yl)spiro[indoline-3,4′-piperidine]-5-yl)methanamine] | < 10 µM |
| C[C@@H]1CCc2ncnc(N3CC4(CCNCC4)c4cc(CCN)ccc43)c21 [Example 14, (R)-2-(1-(5-methyl-6,7-dihydro-5H-cyclopenta[d]pyrimidin-4-yl)spiro[indoline-3,4′-piperidine]-5-yl)ethanamine] | < 10 µM |
| C[C@@H]1CCc2ncnc(N3C[C@@]4(CCNC4)c4cc(Cl)ccc43)c21 [Example 15, (S)-5-chloro-1-((R)-5-methyl-6,7-dihydro-5H-cyclopenta[d]pyrimidin-4-yl)spiro[indoline-3,3′-pyrrolidine]] | < 10 µM |
| C[C@@H]1CCc2ncnc(N3C[C@]4(CCNC4)c4cc(Cl)ccc43)c21 [Example 16, (R)-5-chloro-1-((R)-5-methyl-6,7-dihydro-5H-cyclopenta[d]pyrimidin-4-yl)spiro[indoline-3,3′-pyrrolidine]] | < 10 µM |

| Structure (SMILES) | IC50 |
| --- | --- |
| C[C@@H]1C[C@@H](O)c2ncnc(N3CC4(CCN(C)CC4)c4cc(Cl)ccc43)c21 [Example 18, (5R,7R)-4-(5-chloro-1′-methylspiro[indoline-3,4′-piperidine]-1-yl)-5-methyl-6,7-dihydro-5H-cyclopenta[d]pyrimidin-7-ol] | < 10 µM |
| C[C@@H]1CCc2ncnc(N3CC4(CCN(CCCN)CC4)c4cc(Cl)ccc43)c21 [Example 20, (R)-3-(5-chloro-1-(5-methyl-6,7-dihydro-5H-cyclopenta[d]pyrimidin-4-yl)spiro[indoline-3,4′-piperidine]-1′-yl)propan-1-amine] | < 10 µM |
| C[C@@H]1CCc2ncnc(N3C[C@]4(CCN[C@@H]4c4ccccc4)c4cc(Cl)ccc43)c21 [Example 22, (2′R,3S)-5-chloro-1-((R)-5-methyl-6,7-dihydro-5H-cyclopenta[d]pyrimidin-4-yl)-2′-phenylspiro[indoline-3,3′-pyrrolidine]] | < 10 µM |
| C[C@@H]1CCc2ncnc(N3C[C@]4(CCN[C@H]4c4ccccc4)c4cc(Cl)ccc43)c21 [Example 23, (2′S,3S)-5-chloro-1-((R)-5-methyl-6,7-dihydro-5H-cyclopenta[d]pyrimidin-4-yl)-2′-phenylspiro[indoline-3,3′-pyrrolidine]] | < 10 µM |
| C[C@@H]1C[C@@H](O)c2ncnc(N3C[C@]4(CN[C@H](CO)C4)c4ccccc43)c21 [Example 24, (5R,7R)-4-((3S,5′S)-5′-(hydroxymethyl)spiro[indoline-3,3′-pyrrolidine]-1-yl)-5-methyl-6,7-dihydro-5H-cyclopenta[d]pyrimidin-7-ol] | < 10 µM |
| C[C@@H]1C[C@@H](O)c2ncnc(N3CC4(CCNC(Cc5ccccc5)C4)c4cc(Cl)ccc43)c21 (stereo partly drawn) [Example 26, (5R,7R)-4-(2′-benzyl-5-chlorospiro[indoline-3,4′-piperidine]-1-yl)-5-methyl-6,7-dihydro-5H-cyclopenta[d]pyrimidin-7-ol] | < 10 µM |
| CC(=O)NCc1cccc2c1C1(CCNCC1)CN2c1ncnc2c1[C@H](C)C[C@H]2O [Example 27, N-((1-((5R,7R)-7-hydroxy-5-methyl-6,7-dihydro-5H-cyclopenta[d]pyrimidin-4-yl)spiro[indoline-3,4′-piperidine]-4-yl)methyl)acetamide] | < 10 µM |
| CC(C)NCc1cccc2c1C1(CCNCC1)CN2c1ncnc2c1[C@H](C)C[C@H]2O [Example 28, (5R,7R)-4-(4-((isopropylamino)methyl)spiro[indoline-3,4′-piperidine]-1-yl)-5-methyl-6,7-dihydro-5H-cyclopenta[d]pyrimidin-7-ol] | < 10 µM |
| C[C@@H]1C[C@@H](O)c2ncnc(N3CC4(CCNCC4)c4c3ccc(Cl)c4CN)c21 [Example 29, (5R,7R)-4-(4-(aminomethyl)-5-chlorospiro[indoline-3,4′-piperidine]-1-yl)-5-methyl-6,7-dihydro-5H-cyclopenta[d]pyrimidin-7-ol] | < 10 µM |
| Clc1ccc2c(c1)C1(CCNCC1)CN2c1ncnc2c1CCC2 [Example 30, 5-chloro-1-(6,7-dihydro-5H-cyclopenta[d]pyrimidin-4-yl)spiro[indoline-3,4′-piperidine]] | < 10 µM |
| CCOc1ccc2c(c1)C1(CCNCC1)CN2c1ncnc2c1[C@H](C)CC2 [Example 31, (R)-5-ethoxy-1-(5-methyl-6,7-dihydro-5H-cyclopenta[d]pyrimidin-4-yl)spiro[indoline-3,4′-piperidine]] | < 10 µM |
| C[C@@H]1CCc2ncnc(N3CC4(CCNCC4)c4cc(F)ccc43)c21 [Example 32, (R)-5-fluoro-1-(5-methyl-6,7-dihydro-5H-cyclopenta[d]pyrimidin-4-yl)spiro[indoline-3,4′-piperidine]] | < 10 µM |
| C[C@@H]1CCc2ncnc(N3CC4(CCNCC4)c4cc(Cl)cc(F)c43)c21 [Example 33, (R)-5-chloro-7-fluoro-1-(5-methyl-6,7-dihydro-5H-cyclopenta[d]pyrimidin-4-yl)spiro[indoline-3,4′-piperidine]] | < 10 µM |
| C[C@@H]1CCc2ncnc(N3CC4(CCNCC4)c4cc(Cl)c(F)cc43)c21 [Example 34, (R)-5-chloro-6-fluoro-1-(5-methyl-6,7-dihydro-5H-cyclopenta[d]pyrimidin-4-yl)spiro[indoline-3,4′-piperidine]] | < 10 µM |
| C[C@@H]1CCc2ncnc(N3CC4(CCNCC4)c4c3ccc(Cl)c4F)c21 [Example 35, (R)-5-chloro-4-fluoro-1-(5-methyl-6,7-dihydro-5H-cyclopenta[d]pyrimidin-4-yl)spiro[indoline-3,4′-piperidine]] | < 10 µM |
| C[C@@H]1CCc2ncnc(N3CC4(CCNCC4)c4c3ccc(F)c4F)c21 [Example 36, (R)-4,5-difluoro-1-(5-methyl-6,7-dihydro-5H-cyclopenta[d]pyrimidin-4-yl)spiro[indoline-3,4′-piperidine]] | < 10 µM |
| C[C@@H]1CCc2ncnc(N3CC4(CCNCC4)c4cc(F)c(F)cc43)c21 [Example 37, (R)-5,6-difluoro-1-(5-methyl-6,7-dihydro-5H-cyclopenta[d]pyrimidin-4-yl)spiro[indoline-3,4′-piperidine]] | < 10 µM |
